Experimental data taken from patent US20080262088A1, “METHODS, COMPOUNDS, AND COMPOSITIONS FOR TREATING METABOLIC DISORDERS AND DIABETES” (priority 2006, published 2008).

System: Zucker Diabetic Fatty rat (ZDF)
Assay: In vivo preventive study of renal function and metabolic status in ZDF rats (serum/urine chemistry, body and organ weights)
Settings: either group, end of study
Excerpt: The compound 1,3 Propanedisulfonic Acid Disodium Salt (PDS) was selected for a preventive study of renal function in the Zucker rat (ZDF) model as well as its effect on metabolic status and diabetes.
A leading study model for DN is the inbred Zucker Diabetic Fatty rat (ZDF). Given a diabetogenic diet, the ZDF rat will closely mimic human adult onset diabetes (Type 2) and related complications including glomerulosclerosis and renal damage earlier than when fed a normal diet (i.e. 14-18 weeks of age). […]
Thirty-two, 6 week-old male ZDF rats (Charles River, St. Constant, Canada) were randomized in 2 groups, Treated (PDS; in 1% sucrose drinking solution) and Control (1% sucrose drinking solution), and studied for a period of 12 weeks. […] Body weight, food and drinking solution consumption were measured on a daily basis. […] At the end of each metabolic cage session, urine output was measured, and blood and urine samples were collected in order to quantify serum and/or urine levels of PDS, creatinine, protein, uric acid, triglycerides, glucose, and electrolytes. […]
This pre-clinical investigation evaluates the role and efficacy of compound 1,3-Propanedisulfonic Acid Disodium Salt (PDS) (Eprodisate Disodium) as a preventive treatment for DN and related pathophysiology in the ZDF rat model. The primary measured outcome is the attenuation/reversal of creatinine clearance deterioration and of proteinuria. […]

SMILES: O=S(=O)([O-])CCCS(=O)(=O)[O-].[Na+].[Na+] [PDS, 1,3 Propanedisulfonic Acid Disodium Salt]
- amyloid deposit in the kidneys: No amyloid deposit was detected
